Measurements taken from patent EP4497755A1 (Asociación Centro de Investigación Cooperativa en …, dated 2025).
No constants are given. Whether binding was seen depends on the method and setting. In cells and extracts the contact can be indirect. Some entries that bind do so weakly or less than the wild type. Where a sequence is shown, tags or fusion partners need not be part of it.

Protein sequences, listed by entry. Tags and fused reporters are not part of them. Lines headed by an entry give the natural chain unless they say otherwise; changes in a name come on top. Chains listed by the source or under a name are the forms on record and can include a tag or linker. Residues count along the entry.
LRP6N-IgG (Fc-tagged LRP6 extracellular domain) (O75581, residues 20-1370): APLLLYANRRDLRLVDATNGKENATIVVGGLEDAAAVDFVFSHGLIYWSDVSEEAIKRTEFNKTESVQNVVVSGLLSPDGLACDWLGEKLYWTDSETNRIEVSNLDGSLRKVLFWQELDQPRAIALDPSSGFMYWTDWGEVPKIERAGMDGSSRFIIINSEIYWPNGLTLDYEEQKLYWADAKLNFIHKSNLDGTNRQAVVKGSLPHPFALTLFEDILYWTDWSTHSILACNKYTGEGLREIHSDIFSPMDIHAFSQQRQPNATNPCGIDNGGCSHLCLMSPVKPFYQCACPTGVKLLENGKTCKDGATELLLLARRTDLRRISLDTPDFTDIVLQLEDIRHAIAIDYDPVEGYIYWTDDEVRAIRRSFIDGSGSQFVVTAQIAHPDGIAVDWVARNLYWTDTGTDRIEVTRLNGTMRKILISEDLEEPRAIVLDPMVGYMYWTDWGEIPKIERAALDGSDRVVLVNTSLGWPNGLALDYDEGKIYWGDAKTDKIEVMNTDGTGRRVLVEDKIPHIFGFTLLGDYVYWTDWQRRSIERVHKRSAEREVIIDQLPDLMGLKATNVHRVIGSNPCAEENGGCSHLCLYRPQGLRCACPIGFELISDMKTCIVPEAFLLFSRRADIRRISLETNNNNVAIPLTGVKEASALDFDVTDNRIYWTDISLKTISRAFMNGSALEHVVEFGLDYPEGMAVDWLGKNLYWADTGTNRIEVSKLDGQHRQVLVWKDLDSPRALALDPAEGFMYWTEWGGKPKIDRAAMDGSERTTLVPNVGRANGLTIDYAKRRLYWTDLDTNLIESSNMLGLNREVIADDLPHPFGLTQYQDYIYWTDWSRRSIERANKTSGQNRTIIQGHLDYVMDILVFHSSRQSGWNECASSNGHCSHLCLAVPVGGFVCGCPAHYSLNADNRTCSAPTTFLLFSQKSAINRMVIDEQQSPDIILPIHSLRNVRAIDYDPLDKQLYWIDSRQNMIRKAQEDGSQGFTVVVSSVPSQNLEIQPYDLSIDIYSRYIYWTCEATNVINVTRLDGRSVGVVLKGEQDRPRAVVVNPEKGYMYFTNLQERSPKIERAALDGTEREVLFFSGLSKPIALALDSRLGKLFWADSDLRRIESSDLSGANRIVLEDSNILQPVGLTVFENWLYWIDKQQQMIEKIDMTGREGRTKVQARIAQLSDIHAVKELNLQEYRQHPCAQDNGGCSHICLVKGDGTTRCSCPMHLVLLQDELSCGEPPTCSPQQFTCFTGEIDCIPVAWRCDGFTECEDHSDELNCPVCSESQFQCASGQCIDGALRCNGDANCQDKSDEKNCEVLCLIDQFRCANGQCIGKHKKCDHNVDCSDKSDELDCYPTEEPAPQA
VSV-G-tagged full-length LRP6 (O75581, form named): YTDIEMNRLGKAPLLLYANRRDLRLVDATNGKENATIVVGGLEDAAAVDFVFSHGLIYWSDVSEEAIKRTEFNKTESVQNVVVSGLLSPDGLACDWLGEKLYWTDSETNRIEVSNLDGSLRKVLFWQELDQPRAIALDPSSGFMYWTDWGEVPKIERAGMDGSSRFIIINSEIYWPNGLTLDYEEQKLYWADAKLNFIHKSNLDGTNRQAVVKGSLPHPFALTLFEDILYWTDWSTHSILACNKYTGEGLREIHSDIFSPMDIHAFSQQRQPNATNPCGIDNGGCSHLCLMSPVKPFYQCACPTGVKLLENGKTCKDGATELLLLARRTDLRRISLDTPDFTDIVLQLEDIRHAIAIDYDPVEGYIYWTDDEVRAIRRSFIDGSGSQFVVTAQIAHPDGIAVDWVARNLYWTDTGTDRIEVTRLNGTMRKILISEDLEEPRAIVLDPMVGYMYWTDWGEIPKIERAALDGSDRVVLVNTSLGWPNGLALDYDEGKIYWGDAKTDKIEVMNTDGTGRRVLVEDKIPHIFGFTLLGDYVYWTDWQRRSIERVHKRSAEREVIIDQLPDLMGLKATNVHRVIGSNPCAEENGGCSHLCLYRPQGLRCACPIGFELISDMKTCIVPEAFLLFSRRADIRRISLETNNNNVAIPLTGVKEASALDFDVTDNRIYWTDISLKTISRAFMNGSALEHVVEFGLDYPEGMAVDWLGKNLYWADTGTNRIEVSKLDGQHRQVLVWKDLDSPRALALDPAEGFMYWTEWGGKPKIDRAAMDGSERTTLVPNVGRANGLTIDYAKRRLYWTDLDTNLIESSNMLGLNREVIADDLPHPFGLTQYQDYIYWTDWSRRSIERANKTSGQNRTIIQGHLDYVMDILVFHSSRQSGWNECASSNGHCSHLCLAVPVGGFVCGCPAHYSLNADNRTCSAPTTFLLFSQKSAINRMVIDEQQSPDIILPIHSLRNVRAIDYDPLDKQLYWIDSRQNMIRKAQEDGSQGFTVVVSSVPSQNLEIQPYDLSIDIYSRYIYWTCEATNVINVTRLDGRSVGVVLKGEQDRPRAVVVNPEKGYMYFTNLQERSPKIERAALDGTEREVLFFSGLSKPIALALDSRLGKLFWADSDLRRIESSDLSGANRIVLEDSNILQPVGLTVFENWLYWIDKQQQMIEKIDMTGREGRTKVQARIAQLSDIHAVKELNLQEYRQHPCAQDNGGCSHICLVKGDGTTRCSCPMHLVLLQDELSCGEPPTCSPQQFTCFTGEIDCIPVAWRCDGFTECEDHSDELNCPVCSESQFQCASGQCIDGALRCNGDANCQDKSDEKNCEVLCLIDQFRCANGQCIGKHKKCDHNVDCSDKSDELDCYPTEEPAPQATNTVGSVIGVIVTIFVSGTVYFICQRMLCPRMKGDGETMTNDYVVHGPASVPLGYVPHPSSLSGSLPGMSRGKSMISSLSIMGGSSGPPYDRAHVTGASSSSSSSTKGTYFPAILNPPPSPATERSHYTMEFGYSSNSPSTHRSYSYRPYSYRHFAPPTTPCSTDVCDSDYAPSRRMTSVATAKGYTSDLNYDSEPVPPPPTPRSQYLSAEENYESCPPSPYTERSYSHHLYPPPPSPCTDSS

T1: mFZD8-CRD-IgG (mouse FZD8 extracellular cysteine-rich domain fused to Fc) (mouse) (UniProt Q61091)
T1 sequence (looked up): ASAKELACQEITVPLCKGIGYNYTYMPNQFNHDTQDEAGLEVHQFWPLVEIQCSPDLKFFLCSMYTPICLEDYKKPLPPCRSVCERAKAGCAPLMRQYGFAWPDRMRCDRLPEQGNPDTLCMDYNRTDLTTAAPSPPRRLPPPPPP

B1: PA-tagged human Wnt-11 (ligand)
chain: GVAMPGAEDDVVIKWLALSKTPSALALNQTQHCKQLEGLVSAQVQLCRSNLELMHTVVHAAREVMKACRRAFADMRWNCSSIELAPNYLLDLERGTRESAFVYALSAAAISHAIARACTSGDLPGCSCGPVPGEPPGPGNRWGGCADNLSYGLLMGAKFSDAPMKVKKTGSQANKLMRLHNSEVGRQALRASLEMKCKCHGVSGSCSIRTCWKGLQELQDVAADLKTRYLSATKVVHRPMGTRKHLVPKDLDIRPVKDSELVYLQSSPDFCMKNEKVGSHGTQDRQCNKTSNGSDSCDLMCCGRGYNPYTDRVVERCHCKYHWCCYVTCRRCERTVERYVCK
B2: PA-tagged Wnt-11m (Wnt-11 delta 101-108) (ligand, human)
chain: GVAMPGAEDDVVIKWLALSKTPSALALNQTQHCKQLEGLVSAQVQLCRSNLELMHTVVHAAREVMKACRRAFADMRWNCSSIELAPNYRESAFVYALSAAAISHAIARACTSGDLPGCSCGPVPGEPPGPGNRWGGCADNLSYGLLMGAKFSDAPMKVKKTGSQANKLMRLHNSEVGRQALRASLEMKCKCHGVSGSCSIRTCWKGLQELQDVAADLKTRYLSATKVVHRPMGTRKHLVPKDLDIRPVKDSELVYLQSSPDFCMKNEKVGSHGTQDRQCNKTSNGSDSCDLMCCGRGYNPYTDRVVERCHCKYHWCCYVTCRRCERTVERYVCK
B3: human Wnt-11 (wild-type, untagged) (ligand, UniProt O96014 25-354, looked up)
chain: IKWLALSKTPSALALNQTQHCKQLEGLVSAQVQLCRSNLELMHTVVHAAREVMKACRRAFADMRWNCSSIELAPNYLLDLERGTRESAFVYALSAAAISHAIARACTSGDLPGCSCGPVPGEPPGPGNRWGGCADNLSYGLLMGAKFSDAPMKVKKTGSQANKLMRLHNSEVGRQALRASLEMKCKCHGVSGSCSIRTCWKGLQELQDVAADLKTRYLSATKVVHRPMGTRKHLVPKDLDIRPVKDSELVYLQSSPDFCMKNEKVGSHGTQDRQCNKTSNGSDSCDLMCCGRGYNPYTDRVVERCHCKYHWCCYVTCRRCERTVERYVCK
B4: Wnt-11 antibody epitope deletion mutant Wnt-11m (Wnt-11 delta 101-108, untagged) (ligand, human, UniProt O96014 25-354, looked up)
chain: IKWLALSKTPSALALNQTQHCKQLEGLVSAQVQLCRSNLELMHTVVHAAREVMKACRRAFADMRWNCSSIELAPNYRESAFVYALSAAAISHAIARACTSGDLPGCSCGPVPGEPPGPGNRWGGCADNLSYGLLMGAKFSDAPMKVKKTGSQANKLMRLHNSEVGRQALRASLEMKCKCHGVSGSCSIRTCWKGLQELQDVAADLKTRYLSATKVVHRPMGTRKHLVPKDLDIRPVKDSELVYLQSSPDFCMKNEKVGSHGTQDRQCNKTSNGSDSCDLMCCGRGYNPYTDRVVERCHCKYHWCCYVTCRRCERTVERYVCK

How the values were obtained:
[1] = biological target: VSV-G-tagged full-length LRP6 (UniProt O75581); experiment: co-immunoprecipitation from HEK 293 cell extracts, full-length VSV-G-tagged LRP6
[2] = biological target: T1, mFZD8-CRD-IgG (mouse FZD8 extracellular cysteine-rich domain fused to Fc) (mouse); experiment: protein A/G pull-down of FZD8-CRD-Fc from PC3 cell extracts, western blot
[3] = biological target: LRP6N-IgG (Fc-tagged LRP6 extracellular domain) (UniProt O75581); experiment: protein A/G pull-down of LRP6N-Fc from HEK 293 cell extracts, western blot
[4] = biological target: LRP6N-IgG (Fc-tagged LRP6 extracellular domain) (UniProt O75581); experiment: protein A/G pull-down of LRP6N-Fc from PC3 cell extracts, western blot

Molecule	binding [1]	binding [2]	binding [3]	binding [4]
PA-tagged human Wnt-11 (from UniProt O96014 25-354) (ligand)	binds			
B1		binds	binds	
B2	binds	binds	binds	
B3				binds
B4				binds
